# Measured values: patent US20040024178A1 (priority 1999, published 2004)
# One purity is given for all peptides; the source may state it once.
# Experiments:
# [1] = general procedure: Fmoc solid-phase peptide synthesis; Fmoc-Asp(OBut)-OPEG-PS resin (0.14 mmole/g); Fmoc-Asp(OBut)-Wang resin (0.76 mmol/g); TBTU/HOBt/DIPEA; HBTU/HOBt/DIPEA; conditions: whole synthesis, scale of the general procedure 0.0760 mmol, 0.0228 mmole, 0.25 mmol
# [2] = general procedure: Fmoc solid-phase peptide synthesis; Wang; TBTU/HOBt/DIPEA; HBTU/HOBt/DIPEA; conditions: whole synthesis, LC-MS, scale 0.25 mmol
substance,measurement,setting,value
Decanoyl-Leu-Thr-Pro-Lys(Bio-X)-Ala-Lys-Ala-Ala-Ser-Lys-Ile-Asp-Asp-Gly-Lys(Flu)-Asp-OH (LTPKAKAASKIDDGKD),final LC-MS purity,[1],>90%
Decanoyl-Leu-Thr-Pro-Lys(Bio-X)-Ala-Lys-Ala-Ala-Ser-Lys-Lys(Flu)-Asp-Asp-OH (LTPKAKAASKKDD),final LC-MS purity,[1],>90%
Decanoyl-Lys(Bio-X)-Thr-Pro-Thr-Ala-Lys-Ala-Ala-Ser-Lys-Ile-Asp-Asp-Gly-Lys(Flu)-Asp-OH (KTPTAKAASKIDDGKD),final LC-MS purity,[1],>90%
Decanoyl-Lys(Flu)-Thr-Pro-Thr-Ala-Lys-Ala-Ala-Ser-Lys-Lys(Bio-X)-Asp-Asp-OH (KTPTAKAASKKDD),final LC-MS purity,[2],>90%
